PubChem BioAssay AID1159579 | Peter MacCallum Cancer Centre – 2015
Shown is an unselected part of about 2,000 reagents. 549 of them (27%) were called active. 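Some migration ratios are negative; siRNAs with too few cells are inactive whatever their migration ratio.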 A number with no mark means an inactive call. The numbers tell different reagents against one gene apart. The record does not give: the time to read-out.

- Purpose: 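Retest candidate lymphatic endothelial migration regulators using several independent siRNAs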 (follow-up of hits)
- System: human dermal lymphatic endothelial cells
- Reagent: single siRNA against human genes, 25 nM
- Measurement: 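High content images of wound closure area and cell nuclei counts, each the average of two wells, expressed against mock transfection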
- Scale: migration relative to mock: higher = more migration into the scratch; mean nuclei count: higher = more cells remaining
- Active means: 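Called active when the migration ratio is 0.6 or lower (impaired) or 1.3 or higher (accelerated), but inactive whenever the mean nuclei count falls under 3300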
- Meaning of the calls: active = migration changed (impaired or accelerated); inactive = no migration change, or too few cells

gene	reagent no.	migration relative to mock	migration and cell number class	mean nuclei count
MEGF11 (GeneID 84465)	1	0.74	no change in migration or cell number	5366
MEGF11 (GeneID 84465)	2	0.74	no change in migration or cell number	6612
MEGF11 (GeneID 84465)	3	0.43 (active)	migration reduced	5135
MEGF11 (GeneID 84465)	4	-0.18	too few cells; migration not scored	2654
PGBD5 (GeneID 79605)	1	0.9	no change in migration or cell number	4804
PGBD5 (GeneID 79605)	2	0.53 (active)	migration reduced	5531
PGBD5 (GeneID 79605)	3	0.94	no change in migration or cell number	5904
PGBD5 (GeneID 79605)	4	0.56 (active)	migration reduced	7221
OTOS (GeneID 150677)	1	1	no change in migration or cell number	5468
OTOS (GeneID 150677)	2	0 (active)	migration reduced	3560
OTOS (GeneID 150677)	3	0.78	no change in migration or cell number	6110
OTOS (GeneID 150677)	4	0.93	no change in migration or cell number	5934
FCRL2 (GeneID 79368)	1	0.54 (active)	migration reduced	4001
FCRL2 (GeneID 79368)	2	0.48 (active)	migration reduced	5798
FCRL2 (GeneID 79368)	3	0.5 (active)	migration reduced	5010
FCRL2 (GeneID 79368)	4	0.48 (active)	migration reduced	4553
ADNP2 (GeneID 22850)	1	1.04	no change in migration or cell number	6244
ADNP2 (GeneID 22850)	2	0.76	no change in migration or cell number	4102
ADNP2 (GeneID 22850)	3	0.82	no change in migration or cell number	5246
ADNP2 (GeneID 22850)	4	0.82	no change in migration or cell number	5184
MAPK11 (GeneID 5600)	1	0.72	no change in migration or cell number	6792
MAPK11 (GeneID 5600)	2	0.53 (active)	migration reduced	6524
MAPK11 (GeneID 5600)	3	0.66	no change in migration or cell number	5495
MAPK11 (GeneID 5600)	4	0.78	no change in migration or cell number	6794
ERP29 (GeneID 10961)	1	0.92	no change in migration or cell number	6736
ERP29 (GeneID 10961)	2	0.79	no change in migration or cell number	5878
ERP29 (GeneID 10961)	3	0.88	no change in migration or cell number	5574
ERP29 (GeneID 10961)	4	0.7	no change in migration or cell number	5786
ACTL8 (GeneID 81569)	1	0.41	too few cells; migration not scored	2501
ACTL8 (GeneID 81569)	2	1.11	no change in migration or cell number	5280
ACTL8 (GeneID 81569)	3	0.71	no change in migration or cell number	5144
ACTL8 (GeneID 81569)	4	0.42 (active)	migration reduced	3998
NCS1 (GeneID 23413)	1	0.74	no change in migration or cell number	5669
NCS1 (GeneID 23413)	2	0.75	no change in migration or cell number	6624
NCS1 (GeneID 23413)	3	0.63	no change in migration or cell number	5904
NCS1 (GeneID 23413)	4	1.17	no change in migration or cell number	6138
ASB14 (GeneID 142686)	1	0.39 (active)	migration reduced	5734
ASB14 (GeneID 142686)	2	0.96	no change in migration or cell number	6464
ASB14 (GeneID 142686)	3	0.79	no change in migration or cell number	4606
ASB14 (GeneID 142686)	4	0.74	no change in migration or cell number	5693
SETD2 (GeneID 29072)	1	0.48 (active)	migration reduced	5258
SETD2 (GeneID 29072)	2	0.82	no change in migration or cell number	6436
SETD2 (GeneID 29072)	3	0.6 (active)	migration reduced	6328
SETD2 (GeneID 29072)	4	0.8	no change in migration or cell number	5474
KRTAP12-2 (GeneID 353323)	1	0.76	no change in migration or cell number	6191
KRTAP12-2 (GeneID 353323)	2	1	no change in migration or cell number	5516
KRTAP12-2 (GeneID 353323)	3	0.58 (active)	migration reduced	3539
KRTAP12-2 (GeneID 353323)	4	0.9	no change in migration or cell number	5436
LRCH1 (GeneID 23143)	1	1.11	no change in migration or cell number	6230
LRCH1 (GeneID 23143)	2	0.73	no change in migration or cell number	4002
LRCH1 (GeneID 23143)	3	1.22	no change in migration or cell number	6499
LRCH1 (GeneID 23143)	4	1.16	no change in migration or cell number	4962
GARIN6 (GeneID 196472)	1	1.19	no change in migration or cell number	6862
GARIN6 (GeneID 196472)	2	0.98	no change in migration or cell number	5006
GARIN6 (GeneID 196472)	3	0.94	no change in migration or cell number	6334
GARIN6 (GeneID 196472)	4	1	no change in migration or cell number	5808
KDR (GeneID 3791)	1	-0.34 (active)	migration reduced	4242
KDR (GeneID 3791)	2	0.68	no change in migration or cell number	6043
KDR (GeneID 3791)	3	0.94	no change in migration or cell number	6139
KDR (GeneID 3791)	4	0.68	no change in migration or cell number	4870
BRD7 (GeneID 29117)	1	0.93	no change in migration or cell number	5326
BRD7 (GeneID 29117)	2	0.62	too few cells; migration not scored	3175
BRD7 (GeneID 29117)	3	1.15	no change in migration or cell number	5629
BRD7 (GeneID 29117)	4	0.74	no change in migration or cell number	5224
LAMB3 (GeneID 3914)	1	1	no change in migration or cell number	5014
LAMB3 (GeneID 3914)	2	0.67	no change in migration or cell number	4842
LAMB3 (GeneID 3914)	3	1.04	no change in migration or cell number	5554
LAMB3 (GeneID 3914)	4	0.59 (active)	migration reduced	5614

Reformatted: results already given.
| gene | reagent no. | migration relative to mock | migration and cell number class | mean nuclei count |
| --- | --- | --- | --- | --- |
| SETD2 (GeneID 29072) | 2 | 0.82 | no change in migration or cell number | 6436 |
| SETD2 (GeneID 29072) | 3 | 0.6 (active) | migration reduced | 6328 |
| SETD2 (GeneID 29072) | 4 | 0.8 | no change in migration or cell number | 5474 |
| KRTAP12-2 (GeneID 353323) | 1 | 0.76 | no change in migration or cell number | 6191 |
| KRTAP12-2 (GeneID 353323) | 2 | 1 | no change in migration or cell number | 5516 |
| KRTAP12-2 (GeneID 353323) | 3 | 0.58 (active) | migration reduced | 3539 |
| KRTAP12-2 (GeneID 353323) | 4 | 0.9 | no change in migration or cell number | 5436 |
| LRCH1 (GeneID 23143) | 1 | 1.11 | no change in migration or cell number | 6230 |
| LRCH1 (GeneID 23143) | 2 | 0.73 | no change in migration or cell number | 4002 |
